# Results are given in words; binding and its absence hold for the method and conditions named. In cells and extracts the contact can be indirect. Some binding calls cover weakened binding; strength is not graded here. Tags and fused reporters may be left off the sequences shown.
# By UniProt entry, the sequences of proteins in these tests, tags left out. Residues count along the entry.
# UniProt P27467, residues 19-352: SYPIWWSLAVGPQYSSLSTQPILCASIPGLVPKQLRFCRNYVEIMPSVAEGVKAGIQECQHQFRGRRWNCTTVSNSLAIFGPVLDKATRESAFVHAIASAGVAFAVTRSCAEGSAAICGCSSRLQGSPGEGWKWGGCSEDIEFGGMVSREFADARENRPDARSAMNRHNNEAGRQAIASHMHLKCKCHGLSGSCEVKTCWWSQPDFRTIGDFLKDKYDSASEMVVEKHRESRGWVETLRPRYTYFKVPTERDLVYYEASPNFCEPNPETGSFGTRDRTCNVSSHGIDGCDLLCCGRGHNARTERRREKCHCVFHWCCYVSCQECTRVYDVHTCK
# Biological target: T1, SFRP-4(HA tagged) (rat) (UniProt Q9JLS4)
# T1 sequence: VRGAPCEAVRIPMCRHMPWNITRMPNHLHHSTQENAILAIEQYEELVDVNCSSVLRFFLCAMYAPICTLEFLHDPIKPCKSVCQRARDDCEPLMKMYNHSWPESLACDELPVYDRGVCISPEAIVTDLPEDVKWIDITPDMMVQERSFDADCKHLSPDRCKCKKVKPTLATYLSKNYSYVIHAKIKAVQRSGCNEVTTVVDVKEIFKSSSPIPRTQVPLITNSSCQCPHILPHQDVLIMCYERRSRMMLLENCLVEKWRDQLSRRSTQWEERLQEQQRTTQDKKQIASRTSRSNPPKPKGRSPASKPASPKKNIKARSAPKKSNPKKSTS
# Experiment: co-IP; conditioned medium of HEK293 SFRP-4(HA tagged) cells treated with 5 μl/ml partially-purified Wnt-3a for 4 hours, mixed 1:1 with Immunoprecipitation Buffer (PBS without Ca2+/Mg2+, 0.25% Triton X-100); rabbit anti-HA antibody, 4°C, protein G Sepharose; blot with mouse anti-HA, re-probed with anti-Wnt-3a; only the binder purified
substance,measurement,value
Wnt-3a (from UniProt P27467 19-352) (ligand),binding,binds

# Reference: article PMC2412851
